# Results are given in words; binding and its absence hold for the method and conditions named. Binding seen in cells or lysates may run through a third protein. Some results given as binding are weak or reduced against the parent protein; the word gives no strength.
# T1: Aquaporin 2 (AQP2), mouse, endogenous (mouse (endogenous in mpkCCD14 cells and mouse kidney tubules)) (UniProt P56402)
# T1 sequence: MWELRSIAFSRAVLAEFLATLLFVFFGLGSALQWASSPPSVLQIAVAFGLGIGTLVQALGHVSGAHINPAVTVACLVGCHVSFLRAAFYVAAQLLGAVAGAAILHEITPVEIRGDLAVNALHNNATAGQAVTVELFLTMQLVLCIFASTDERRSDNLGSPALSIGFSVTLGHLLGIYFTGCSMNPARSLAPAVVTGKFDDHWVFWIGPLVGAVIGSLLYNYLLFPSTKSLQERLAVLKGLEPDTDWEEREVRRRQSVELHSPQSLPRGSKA
# T2: ubiquitin-specific protease 4 (USP4), mouse, endogenous (mouse (endogenous in mpkCCD14 cells and mouse kidney tubules)) (UniProt P35123)
# T2 sequence: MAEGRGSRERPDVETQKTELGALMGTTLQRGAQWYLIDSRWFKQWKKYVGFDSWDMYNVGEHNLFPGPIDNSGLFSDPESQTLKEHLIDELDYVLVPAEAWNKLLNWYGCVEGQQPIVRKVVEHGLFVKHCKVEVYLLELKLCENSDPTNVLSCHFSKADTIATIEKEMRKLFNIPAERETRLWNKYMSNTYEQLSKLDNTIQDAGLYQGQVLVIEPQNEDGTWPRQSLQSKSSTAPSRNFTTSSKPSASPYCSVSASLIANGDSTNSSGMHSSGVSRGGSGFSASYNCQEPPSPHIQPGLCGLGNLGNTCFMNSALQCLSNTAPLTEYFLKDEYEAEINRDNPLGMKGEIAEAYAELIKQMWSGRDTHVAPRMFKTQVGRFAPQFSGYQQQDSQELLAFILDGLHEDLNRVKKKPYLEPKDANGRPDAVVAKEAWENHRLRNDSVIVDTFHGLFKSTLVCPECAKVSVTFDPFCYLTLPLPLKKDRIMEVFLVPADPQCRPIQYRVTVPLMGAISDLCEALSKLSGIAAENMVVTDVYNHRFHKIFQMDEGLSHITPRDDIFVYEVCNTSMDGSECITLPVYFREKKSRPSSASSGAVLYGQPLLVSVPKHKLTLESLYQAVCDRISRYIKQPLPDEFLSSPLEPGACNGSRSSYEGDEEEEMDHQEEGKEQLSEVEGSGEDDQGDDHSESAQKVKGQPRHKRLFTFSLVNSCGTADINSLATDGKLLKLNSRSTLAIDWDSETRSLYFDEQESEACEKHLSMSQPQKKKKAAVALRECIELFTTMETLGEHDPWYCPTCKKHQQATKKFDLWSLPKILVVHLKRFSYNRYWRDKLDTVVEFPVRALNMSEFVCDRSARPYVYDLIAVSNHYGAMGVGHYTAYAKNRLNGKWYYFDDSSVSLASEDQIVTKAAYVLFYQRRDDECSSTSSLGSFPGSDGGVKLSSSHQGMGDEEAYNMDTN
# B1: ubiquitin-specific protease 4 (USP4), mouse, endogenous (enzyme, UniProt P35123 1-962)
# chain: T2 sequence
# B2: Aquaporin 2 (AQP2), mouse, endogenous (protein, UniProt P56402 1-271)
# chain: T1 sequence
# Assays:
# [1] = molecular target: T1, Aquaporin 2 (AQP2), mouse, endogenous (mouse (endogenous in mpkCCD14 cells and mouse kidney tubules)); assay: co-IP; lysates of mouse kidney tubule suspensions (IP buffer: 20 mM Tris, 135 mM NaCl, 5 mM EDTA, 1% NP40); IP with anti-AQP2 or anti-USP4 antibodies; blots for USP4 and AQP2; tubules treated with vehicle or dDAVP for 30 min
# [2] = molecular target: T1, Aquaporin 2 (AQP2), mouse, endogenous (mouse (endogenous in mpkCCD14 cells and mouse kidney tubules)); assay: co-IP; mpkCCD14 cell lysate (20 mM Tris, 135 mM NaCl, pH 7.5, 5 mM EDTA, 1% Nonidet P-40); IP with anti-AQP2 antibody on Protein-A-agarose, 60 min at room temperature; blot for USP4; cells treated with vehicle or dDAVP for 20 min before lysis
# [3] = molecular target: T2, ubiquitin-specific protease 4 (USP4), mouse, endogenous (mouse (endogenous in mpkCCD14 cells and mouse kidney tubules)); assay: co-IP; lysates of mouse kidney tubule suspensions (IP buffer: 20 mM Tris, 135 mM NaCl, 5 mM EDTA, 1% NP40); IP with anti-AQP2 or anti-USP4 antibodies; blots for USP4 and AQP2; tubules treated with vehicle or dDAVP for 30 min
binder,measurement,setting,value
B1,binding,[1],binds
same,binding,[2],binds
B2,binding,[3],binds

# From paper PMC6468601
